Some entries share one result that the patent states for a list of compounds. For at least one compound, name, drawing or mass did not settle the structure.
The compounds below were run on tumor cells (assay: Cytotoxicity effects of the platinum compounds on tumor cells (MTT), overall conclusion). Details: conclusion from Tables 1-2 and 4-9.
Format: cell-based

Compound | cytotoxic effects in vitro compared with cisplatin and carboplatin
2-(4-diethylaminobutyl)-malonate•cis-dicyclopentylamine platinum (II) acetate [Compound 25] | equivalent or stronger cytotoxic effects in vitro with cisplatin, and much stronger than carboplatin
CCN(CC)CCCCC1C(=O)[O][Pt]2([NH]CC(CO)(CO)C[NH]2)[O]C1=O.O=P(O)(O)O [Compound 21, 2-(4-diethylaminobutyl)-malonate•cis-1,3-(2,2-hydroxymethyl)-propanediamine platinum (II) phosphate] | equivalent or stronger cytotoxic effects in vitro with cisplatin, and much stronger than carboplatin
2-(4-diethylaminobutyl)-malonate•cis-ammonia•cyclopentylamine platinum (II) acetate [Compound 26] | equivalent or stronger cytotoxic effects in vitro with cisplatin, and much stronger than carboplatin
CCN(CC)CCCCC1C(=O)[O][Pt]2([NH]CC3CCC3C[NH]2)[O]C1=O.O=P(O)(O)O (racemic) [Compound 22, 2-(4-diethylaminobutyl)-malonate•cis-1,4-(trans-2,3-cyclobutyl)-butanediamine platinum (II) phosphate] | equivalent or stronger cytotoxic effects in vitro with cisplatin, and much stronger than carboplatin
2-(4-diethylaminobutyl)-malonate•cis-(1, 2-trans-cyclopropanediamine) platinum (II) phosphate [Compound 16] | equivalent or stronger cytotoxic effects in vitro with cisplatin, and much stronger than carboplatin
CCN(CC)CCCCC1C(=O)[O][Pt]2([NH]CC3(CCOCC3)C[NH]2)[O]C1=O.O=P(O)(O)O [Compound 24, 2-(4-diethylaminobutyl)-malonate•cis-1,3-(2,2-(4-oxacyclohexyl))-propanediamine•platinum (II) phosphate] | equivalent or stronger cytotoxic effects in vitro with cisplatin, and much stronger than carboplatin
CCN(CC)CCCCC1C(=O)[O][Pt][O]C1=O.NC1CCC(N)CC1.O=P(O)(O)O [Compound 23, 2-(4-diethylaminobutyl)-malonate•cis-1,4-cyclohexanediamine platinum (II) phosphate] | equivalent or stronger cytotoxic effects in vitro with cisplatin, and much stronger than carboplatin
2-(2-diethylaminobutyl)-malonate•cis-1,2-(1,2-dihydroxymethyl)-ethylenediamine platinum (II) phosphate [Compound 20] | equivalent or stronger cytotoxic effects in vitro with cisplatin, and much stronger than carboplatin
CCN(CC)CCCCC1C(=O)[O][Pt]2([NH]CCCC[NH]2)[O]C1=O.O=P(O)(O)O [Compound 19, 2-(4-diethylaminobutyl)-malonate•cis-(1,4-butanediamine) platinum (II) phosphate] | equivalent or stronger cytotoxic effects in vitro with cisplatin, and much stronger than carboplatin
2-(4-diethylaminobutyl)-malonate•cis-(2-aminomethyl-cyclopentylamine) platinum (II) acetate [Compound 27] | equivalent or stronger cytotoxic effects in vitro with cisplatin, and much stronger than carboplatin
CCN(CC)CCCCC1C(=O)[O][Pt]2([NH]CCC[NH]2)[O]C1=O.O=P(O)(O)O [Compound 18, 2-(4-diethylaminobutyl)-malonate•cis-(1,3-propanediamine) platinum (II) phosphate] | equivalent or stronger cytotoxic effects in vitro with cisplatin, and much stronger than carboplatin
CCN(CC)CCCCC1C(=O)[O][Pt]2([NH]C3CCCC3[NH]2)[O]C1=O.O=P(O)(O)O (racemic) [Compound 14, 2-(4-diethylaminobutyl)-malonate•cis-(1,2-trans-cyclopentanediamine) platinum (II) phosphate] | equivalent or stronger cytotoxic effects in vitro with cisplatin, and much stronger than carboplatin
